Our source for the binding values is publication PMC11417211.

In the experiment the target is Pichia pastoris expressed HAMpin-1 (pHAMpin-1) (Hyalomma anatolicum). Description: affinity purification with mass spectrometry; 96-well plate coated with 1 μg/well pHAMpin-1; 10% bovine serum in PBS, 30 min, 37 °C; eluted with 0.2 M glycine pH 2.3; LC-MS/MS; proteins from BSA wells subtracted; only the target purified.

These are yes or no findings as the source states them, for the method shown. In cells and extracts the contact can be indirect. A yes stands for co-enrichment or nearness to the bait. Other partners may have been found.

B1: interalpha-trypsin heavy chain H4 (ITIH4) of bovine serum (protein, UniProt Q3T052 28-916)
chain: QKVQNDIDIYSLTVDSKVSSRFAHTVITSRVVNKADAVREATFQMELPKKAFITNFSMVIDGVTYPGNIKEKAAAQEQYSAAVARGESAGLVRATGRKTEQFQVSVSVAPAAKVTFELVYEELLARHLGAYELLLKVRPQQLVKHLQMDIHIFEPQGISFLETESTFMTNKLAEALTTSQNKTKAHVRFKPTLSQQQKYPEKQDTVIDGSFIVRYDVDRPLSGGSIQIENGYFVHYFAPDSLSTIPKNVIFVIDKSGSMMGRKIKQTREALIKILDDLSPHDQFDLISFSSEATTWKPLLVPASTENVNEAKSYATGIQAQGGTNINDAMLMAVQLLEKANQEELLPEGSITLIILLTDGDPTVGETNPLNIQKNVRKAINGQHSLFCLGFGFDVSYAFLEKMALENGGLARRIYEDSDSALQLQDFYQEVANPLMTSVAFEYPSNAVESVTQDTFRVFFKGSELVVAGKLREQSPDVLLAQIRGQLHRENITYMMMSHVAEQEEMFRSPKYIFHSFIERLWAYLTIQQLLEQMVSALDAEKQALEARALSLSLSYSFVTPLTSMVITKPEGQEQSQVAEKPVEDESRGSRVYLGPMRFGHSVGDRTSRKPGGGLKLLNGTPLFGPPGPPAAASPFHRMTSRLVLPELMSPLAPASAPSPTSGPGGASHDTDFRIKGTTPTALPFAPVQAPSVILPLPGQSVDRLCVDLRRPQELVNLLSDPDQGVEVTGHFETAKARFSWIEVTFENPQVQIHASPEHVVMTRNRRNSAYKWKETLYSVMPGLKVTMDKEGLLLLSRPDRVTIGLLFWDGPGKGLRLLLQNTDRFSSHVSGTLGQFYQDVLWGPLDTADDSKRTLKVQGRDYSATRELKLDYQESPPGKEISCWSVEL
For the molecule B1, the binding entry is reported as “binds”.
